Source: publication PMC2377097
These are yes or no findings as the source states them, for the method shown. Sequences can lack the tags named with a protein.

Sequences of proteins named here, by UniProt entry; tags and fusion partners are left off.
UniProt P0A6Z3: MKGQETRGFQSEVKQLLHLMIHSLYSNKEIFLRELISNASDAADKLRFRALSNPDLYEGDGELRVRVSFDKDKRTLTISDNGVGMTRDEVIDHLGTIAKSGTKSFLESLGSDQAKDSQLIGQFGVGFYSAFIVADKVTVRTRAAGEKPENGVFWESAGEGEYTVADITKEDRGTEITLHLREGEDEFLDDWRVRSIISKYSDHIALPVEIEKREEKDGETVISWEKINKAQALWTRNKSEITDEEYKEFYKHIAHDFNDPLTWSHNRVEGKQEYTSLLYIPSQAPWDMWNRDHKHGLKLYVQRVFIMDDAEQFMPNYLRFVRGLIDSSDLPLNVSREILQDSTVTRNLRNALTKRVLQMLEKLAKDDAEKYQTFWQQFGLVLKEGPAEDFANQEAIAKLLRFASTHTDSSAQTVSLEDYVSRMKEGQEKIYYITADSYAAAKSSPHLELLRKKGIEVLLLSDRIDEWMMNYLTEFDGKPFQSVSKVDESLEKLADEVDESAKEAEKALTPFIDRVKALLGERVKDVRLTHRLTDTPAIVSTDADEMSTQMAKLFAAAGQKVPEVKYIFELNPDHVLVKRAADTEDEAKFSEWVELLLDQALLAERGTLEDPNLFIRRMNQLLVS

Target: T1, Unc45b^Flag, bacteria expressed and purified (mouse) (UniProt Q8CGY6)
T1 sequence: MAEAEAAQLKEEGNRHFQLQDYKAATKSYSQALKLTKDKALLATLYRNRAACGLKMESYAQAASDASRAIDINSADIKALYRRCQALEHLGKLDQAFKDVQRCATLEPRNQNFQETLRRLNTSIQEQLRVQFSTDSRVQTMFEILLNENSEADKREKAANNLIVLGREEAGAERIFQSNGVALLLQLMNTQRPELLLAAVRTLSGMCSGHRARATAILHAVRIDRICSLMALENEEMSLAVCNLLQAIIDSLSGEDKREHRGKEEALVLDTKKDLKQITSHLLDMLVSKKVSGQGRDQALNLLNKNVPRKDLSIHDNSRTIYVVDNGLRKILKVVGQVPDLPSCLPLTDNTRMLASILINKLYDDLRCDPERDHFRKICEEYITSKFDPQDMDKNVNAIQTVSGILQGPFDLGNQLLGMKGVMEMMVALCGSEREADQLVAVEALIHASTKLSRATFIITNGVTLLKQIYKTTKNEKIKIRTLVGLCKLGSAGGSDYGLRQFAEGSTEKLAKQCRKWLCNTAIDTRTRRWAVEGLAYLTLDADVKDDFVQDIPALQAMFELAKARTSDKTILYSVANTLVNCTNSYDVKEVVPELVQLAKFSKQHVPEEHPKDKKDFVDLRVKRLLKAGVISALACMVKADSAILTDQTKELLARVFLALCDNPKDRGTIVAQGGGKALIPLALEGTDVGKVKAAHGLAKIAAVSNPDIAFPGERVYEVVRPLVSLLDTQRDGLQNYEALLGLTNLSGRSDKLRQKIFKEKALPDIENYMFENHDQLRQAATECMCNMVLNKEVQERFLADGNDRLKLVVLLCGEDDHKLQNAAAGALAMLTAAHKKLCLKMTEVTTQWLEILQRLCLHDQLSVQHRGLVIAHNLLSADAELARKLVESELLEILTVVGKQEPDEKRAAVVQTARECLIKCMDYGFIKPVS
Experiment: co-purification (ion-exchange chromatography); Unc45b^Flag purified to homogeneity from E. coli lysate

binding: no binding
Substance: bacterial Hsp90 homologue, HtpG (from UniProt P0A6Z3 1-624)
